System: osteoblasts and bone marrow cells
Conditions: ALN 10^-5 M, orthovanadate 10^-5 M, PAO 2×10^-7 M

NCCCC(O)(P(=O)(O)O)P(=O)(O)O [alendronate]
toxicity for osteoblasts or bone marrow cells: no apparent toxicity

— patent publication US5866397A, “Human protein tyrosine phosphatase OB protein” (Merck & Co., Inc., priority 1997, dated 1999)
